Reference: paper PMC8948191
No constants are given. Whether binding was seen depends on the method and setting. Binding calls can cover weak binding; strength is not graded here.

Sequences of proteins named here, by UniProt entry; tags and fusion partners are left off. A change or cut given only in a name is not applied to a line headed by its entry.
UniProt Q96C03: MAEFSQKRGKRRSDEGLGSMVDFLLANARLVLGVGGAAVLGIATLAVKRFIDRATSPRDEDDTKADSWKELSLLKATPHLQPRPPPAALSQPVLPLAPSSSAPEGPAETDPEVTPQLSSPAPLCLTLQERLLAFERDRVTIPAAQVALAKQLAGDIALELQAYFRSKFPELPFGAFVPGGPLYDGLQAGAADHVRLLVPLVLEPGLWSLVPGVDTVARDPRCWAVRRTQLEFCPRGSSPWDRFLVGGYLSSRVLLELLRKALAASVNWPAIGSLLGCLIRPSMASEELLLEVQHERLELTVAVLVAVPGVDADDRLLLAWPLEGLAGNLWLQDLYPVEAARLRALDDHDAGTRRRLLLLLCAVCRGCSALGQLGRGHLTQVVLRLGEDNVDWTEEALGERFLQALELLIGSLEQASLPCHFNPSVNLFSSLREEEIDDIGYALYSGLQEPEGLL

Target: MiD49ΔTM (MiD49 with a transmembrane domain deletion) (human) (UniProt Q96C03)
Assay: pull-down; cell-free system, recombinant GST- or His-fusions purified from E. coli; CLUH and Drp1 (or Drp1ΔIB) included together with the receptor (MiD49ΔTM, MffΔTM or MffΔCCΔTM) as bait; no cross-linkers; both purified

binding: binds
Substance: Purified recombinant Drp1 (isoform 1) (from UniProt O00429-1 1-736)
